From PubChem BioAssay AID1508600 (Functional Genomics Laboratory (NCATS/FGL), 2020)
Screen size: about 53,000 sequences; about 3,700 (7%) were called active.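 Rule for the calls: active = gene knockdowns whose robust z-score for IL-1 alpha signal is at least 2 or at most -2, so actives lie on both sides; inactive = the rest.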 This is one part of the list.

experiment: Components of the Cytosolic LPS Sensing Pathway: Gene Identification via Genome-wide siRNA Screen; settings: RAW264.7 macrophages, IL-1a HTRF, actives lie on both sides, screened at 100 nM (by protocol), cells primed 5 h with Pam3CSK4 first;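 note: robust z of the log signal after scaling to non-targeting control siRNA wells of the plate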
How it was run: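 Read-out: IL-1a HTRF on supernatant, divided by plate negative-control median ×100, log-transformed and converted to robust z-score. Cells were RAW264.7 given 100 nM siRNA, Pam3CSK4-primed 5 hours, then LipidA-transfected 24 hour.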

z-score, inactive:
GGAGUUUCCCUCAAGAAAATT against Tgfbr3 0.478, GGACAGGAAAAUACUCAGATT against Nat8f5 0.0278, CCCUAAAUUAGCACAGUUUTT against Them7 1.64, GGAAGGUGACAAGCACACCTT against S100a6 -1.08, GGCAGCCAAAUAUGGUGCUTT against Eln 1.02, GGUUGAAACUGCUCUCAAGTT against Prl2a1 1.77, GGGUGCAUUUUAAAUACUATT against Spred2 0.73, GGCCUUAUAACUCAUAUAUTT against Zfp846 -1.86, GGGUGGUUGUAAAAAUUCUTT against Csnk2a2 0.47, GCACUAUGGUCCAUAUUAUTT against Olfr154 -1.19, GCUUCUAAAUUUGGUUCUGTT against 9830163H01Rik -0.389, GGGUUGGAAAGGUAUCUUATT against Timp4 -0.162, GGAACAGGACAAUGACAGUTT against Gzme 1.43, GGAAGAAAAGAAUUCUAUGTT against Cep68 0.493, GCUCUCCUGAAAUUAUGUATT against Get1 -0.126, CCUUAUCUGGAGUGCGAGATT against Gpr158 0.452, CCUCUGUGAUUUCAUUCUUTT against Hhip -0.991, GGUCUGCAUUUGCUUUCCUTT against Olr1 -1.4, GGACAAUGGGCAAGUCACCTT against Rnase1 -1.83, GGUGAUGUGGGUCUUGUGATT against Zdhhc24 -0.107, GCGUGCAGGGUUUUAGCUATT against Chmp2b -1.58, GGAGUUUGAGAUCAUCUUCTT against Nxn 0.785, GGGUUUCUGUAAUGACUAUTT against Zfp113 -0.0803, CCGACCAAUGCAUUGACAATT against Lcn2 -1.22, GGAAAUUCAAGUCAGUGUUTT against Pcyox1l -0.244, GGAAAAAUGCGAACUUACUTT against Npr2 0.0359, GGGUGUGCCUGAAUUACACTT against Ubn1 -0.06, GGGAAAUCAGAUAAAGCCCTT against Myl12a 0.874, CCCUCAUGUUUAGCGAGCATT against Kcnj3 0.644, GGUACAAGCACUCCUGGAATT against Ccs 1.42, GGAAAAGUGCAUUUUGCUGTT against Tex261 -0.921, GCAAAGAGAGUUCGAAUAATT against Klhl2 0.912, CCUUAAAAACUCGAGUAAATT against Gla 0.384, GGUGAUGUAUAUUGAGUCUTT against Sdcbp2 0.149, GGCCUACAGCUGGAAAGAATT against Chrm1 0.418, GCAGAUCGAAUAAUAAGAGTT against Rbbp5 -0.297, GGAUUUCCCAAGCCUUAUUTT against Sncaip -0.617, GGACAUAAAAGACUUAAAGTT against Actr8 -1.78, GGGCAUUAGGAAUUAGGGCTT against Hoga1 -0.336, GGGUACAUUACACUCAGGATT against Atad3aos 0.0727, GCUCUGUGGACUUCUUGGATT against Znrf4 -0.687, GGUUUUGCAUCAACAGUGUTT against Msrb2 1.07, CCAUUGCCUCACACGAGGATT against Lgals3bp -0.573, GCCACUUGUUAAUAAAGUGTT against Smim7 -0.515, GGUAUACUAGUUUGAAGAGTT against Rpl21 1.83, GGUUCUGGAUUUCUGUUUUTT against Phf24 -1.38, GGAAAGAGAUUCUCUUCUATT against Nsun2 -1.2, GCACCAAGGAGUUUCAUUUTT against Acadm -0.339, CCCUCAAUGGCCUCAAACUTT against Elavl3 -1.29, GGGUUUUGAACACUACAUCTT against Tsen34 1.28, GGCAAAAAGGAAUUUCGGCTT against Padi2 -0.288, GCCUUGACUGACAGACCCATT against Zfp114 -1.88, GGACUAGUCCUAAGAAGAGTT against Rbmxl2 -1.27, GCUAGGAGAACCUACAUACTT against Adcy4 -0.368, GGUGCAGUUUAAGAGAGAATT against Tmcc3 -0.224, GGUACAAGACUGUCAUGUGTT against Mrpl3 0.356, GGAGUGAUGAUCAAAAUCCTT against Duxbl1 -0.381, GGACCAUACAAUGAUUCUATT against Zmat1 -0.648, GGAUUAUUUUAAGUGGAGATT against Dna2 -0.103, GGACCUGUUUGAAGAAAAGTT against Gnai2 -0.985, GGGUAUAUUUCCUUCCAGCTT against Dock4 -0.105, GGUACUCACAUCUCCAAAGTT against Zfp948 -0.881

z-score, active:
GCUCACAGCAGCAUUUUACTT against 1700034H15Rik -2.48, CGCAAGGACCGAUCUGAUGTT against Rnps1 -2.41, GGAUUGCAUCUUCCUCGAATT against Olfr816 -2.27, GCGCAAGCCGUAUUCGAAGTT against Hoxc12 2.95, GCCACAACUCCAGAUGCCUTT against Olfr937 -2.64, GCUUCUAACUCUGUGAGGGTT against Defb29 -2.8
